According to PubChem BioAssay AID651843 (National Center for Advancing Translational Sciences (NCATS), 2012):
Where “and” joins values, the source holds several entries; their conditions need not be identical. Equal values may be shown once. Inconclusive results, whose numbers are uncertain, are shown with a selection of clear calls. A potency beside an inconclusive call is a rough fit, not a confirmed value. Calls of active or inactive are those of the source. Calls come from the whole dose curve; as a rule, active = well fitted inhibition curve with a large enough effect; inconclusive = small, poorly fitted or top-dose-only effect; inactive = no such curve, though single readings can be large or run the other way.

Test: qHTS Assay for Inhibitors of MBNL1-poly(CUG) RNA binding: Counterscreen HTRF assay
Conditions: His-Menin/biotin-MLL peptide TR-FRET counterscreen
Description: NIH Chemical Genomics Center [NCGC] NIH Molecular Libraries Probe Production Centers Network [MLPCN] MLPCN Grant: R03 MH087421-01 Assay Submitter (PI): Charles Thornton NCGC Assay Overview: Expanded CTG repeats in the 3' untranslated region of the DM protein kinase (DMPK) gene causes type I myotonic dystrophy (DM1). DM1 is a multi-systemic disease with a prevalence of 1/7000. Clinical features include myotonia, progressive muscle weakness and wasting, cardiac arrhythmia, insulin resistance, hypersomnolence, cataracts, and other symptoms. The pathogenic effect of expanded CTG repeats stems from deleterious effects of the mutant transcript. CUGexp mRNA accumulates in nuclear foci and sequesters proteins of the muscleblind family, of which MBNL1 is the most common family member in skeletal muscles. The binding interaction between MBNL1 and CUGexp tracts leads to deregulation of alternative splicing and is therefore a key molecular step in the pathogenesis of DM1. To target this binding interaction, we optimized a protein-RNA binding assay in 1536-well format for identification of small molecule inhibitors of biotinylated (CUG)12 and his-tagged MBNL1 binding. Protein-RNA complex of MBNL1-His and Biotin-(CUG)12 captures the detection reagents terbium-labeled anti-His antibody and streptavidin conjugated XL665. This brings the terbium label within close proximity to XL665 to allow time-resolved fluorescence resonance energy transfer (TR-FRET). Inhibitors of MBNL1-(CUG)12 binding will disrupt TR-FRET. As a counterscreen, to identify which compounds might be specific disruptors, the present assay uses the same screening platform to interrogate disruption of a different protein-peptide interaction.
This assay uses a ratiometric measurement of TR-FRET binding assay with His-Menin and Biotin-MLL peptide. In the presence of Menin-MLL complex, the excitation energy is transferred to the XL665 acceptor label, causing emission at 665nm, while the 545nm donor signal remains the same. Data were normalized to the controls for basal activity (buffer only) and 100% activity (with Menin-MLL). The IC50 values were determined from concentration-response data modeled with the standard Hill equation Assay buffer: 50mM Tris pH 7.5, 50mM NaCl, 1mM DTT, 0.1% BSA, 0.05% Tween 20 1536-well assay protocol for the MBNL1-(CUG)12 binding assay: (1) Add 2 ul/well 20nM His-Menin, 20nM Biotin-MLL (2) Add 23 nL compounds in DMSO solution. The final titration was 92 nM to 58 uM. (3) Add 1 ul of 0.22 ng/ul terbium labeled anti-His antibody (0.055 ng/ul final concentration) (4) Add 1 ul of 20 nM streptavidin-XL665 (5 nM final concentration) (5) Incubate 60 min at room temperature (6) Detect the assay plate in a EnVision plate reader (PerkinElmer) with Ex=340 nm, Em1=665 nm and Em2=545 nm.
In the case of `Cc1ccsc1C(=O)C1CCCN(Cc2ccc(-n3cccn3)cc2)C1` (centres undefined), the Potency is reported as active: 18.3 µM. With `CN1CCC2(CC1)C(C#N)=C(N)NC(S)=C2C#N` the Potency was active: 10.3 µM and active: 16.3 µM. For `CCOC(=O)N1CCC(NC(=O)CCc2nc(C3=CCN(C)CC3)no2)CC1`, the Potency was inconclusive: 81.9 µM [inhibitor, partial curve]. With `COc1ccc2nc(NC(=O)CCc3nc(C4=CCN(C)CC4)no3)sc2c1` the Potency was inconclusive: 411 µM [inhibitor, partial curve, poor fit].
